Results deposited as PubChem BioAssay AID1259254 (NCATS, 2017)
In all, the deposit lists about 59,000 reagents; this is a random part of them. In the full data, about 1,550 (2.6%) were called active. 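G2 share is only a proxy for re-replication; each gene was hit by three separate siRNAs, and active genes were retested.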 Reagents against one gene are numbered here. Further read-outs or replicates are left out here. Not given: the amount of reagent.

Test: 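Gene knock-downs that lead to re-replication, shown by excess G2 DNA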 (primary screen)
Cells: human HCT116 colorectal cancer cells
Reagents: single siRNA against human genes
Duration: 3 days
Detection: 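Imaged Hoechst DNA stain sorts each cell into a cycle phase by DNA amount; per plate, G2 fraction set to 0% for non-targeting and 100% for GMNN siRNA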
Reading the numbers: G2 robust z-score and G2 cells, % of GMNN control: higher = more G2 cells, more excess DNA replication
Active means: 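An siRNA counts as active if its G2 robust z-score lies at least 5 MADs above the screen median; here such calls match roughly 38% of GMNN control or more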

Which result is listed for KCNQ3 (potassium voltage-gated channel subfamily Q member 3) #1?
G2 robust z-score: 2.13; G2 cells, % of GMNN control: 17.9; Call: inactive

What is on record for KCNQ3 (potassium voltage-gated channel subfamily Q member 3) #2?
G2 robust z-score: -0.387; G2 cells, % of GMNN control: 0.241; Call: inactive

How did the screen score KCNQ3 (potassium voltage-gated channel subfamily Q member 3) #3?
G2 robust z-score: 2.02; G2 cells, % of GMNN control: 17.2; Call: inactive

What is on record for KIF23 (kinesin family member 23) #1?
G2 robust z-score: 4.24; G2 cells, % of GMNN control: 32.8; Call: inactive

What did the screen give for KIF23 (kinesin family member 23) #2?
G2 robust z-score: 6.03; G2 cells, % of GMNN control: 45.4; Call: active

Which result is listed for KIF23 (kinesin family member 23) #3?
G2 robust z-score: 3.98; G2 cells, % of GMNN control: 31; Call: inactive

For TTF1 (transcription termination factor 1) #1, how do the results read?
G2 robust z-score: -1.23; G2 cells, % of GMNN control: -5.72; Call: inactive

With TTF1 (transcription termination factor 1) #2, what was measured?
G2 robust z-score: -0.609; G2 cells, % of GMNN control: -1.32; Call: inactive

Which result is listed for TTF1 (transcription termination factor 1) #3?
G2 robust z-score: -0.75; G2 cells, % of GMNN control: -2.31; Call: inactive

With ADGRF2P (adhesion G protein-coupled receptor F2, pseudogene) #1, what was measured?
G2 robust z-score: 0.836; G2 cells, % of GMNN control: 8.85; Call: inactive

With ADGRF2P (adhesion G protein-coupled receptor F2, pseudogene) #2, what does the deposit list?
G2 robust z-score: 0.394; G2 cells, % of GMNN control: 5.74; Call: inactive

For ADGRF2P (adhesion G protein-coupled receptor F2, pseudogene) #3, how do the results read?
G2 robust z-score: -0.59; G2 cells, % of GMNN control: -1.18; Call: inactive

Which result is listed for SEZ6 (seizure related 6 homolog) #1?
G2 robust z-score: 1.11; G2 cells, % of GMNN control: 10.8; Call: inactive

With SEZ6 (seizure related 6 homolog) #2, what does the deposit list?
G2 robust z-score: -0.0958; G2 cells, % of GMNN control: 2.29; Call: inactive

How did the screen score SEZ6 (seizure related 6 homolog) #3?
G2 robust z-score: -0.865; G2 cells, % of GMNN control: -3.12; Call: inactive

For FCGR2B (Fc gamma receptor IIb) #1, what was measured?
G2 robust z-score: -0.769; G2 cells, % of GMNN control: -2.44; Call: inactive

How did the screen score FCGR2B (Fc gamma receptor IIb) #2?
G2 robust z-score: 0.447; G2 cells, % of GMNN control: 6.11; Call: inactive

For FCGR2B (Fc gamma receptor IIb) #3, how do the results read?
G2 robust z-score: -1.01; G2 cells, % of GMNN control: -4.11; Call: inactive

Which result is listed for ACADVL (acyl-CoA dehydrogenase very long chain) #1?
G2 robust z-score: -1.16; G2 cells, % of GMNN control: -5.17; Call: inactive

What did the screen give for ACADVL (acyl-CoA dehydrogenase very long chain) #2?
G2 robust z-score: -0.729; G2 cells, % of GMNN control: -2.16; Call: inactive

How did the screen score ACADVL (acyl-CoA dehydrogenase very long chain) #3?
G2 robust z-score: -0.476; G2 cells, % of GMNN control: -0.382; Call: inactive

For FAM153B (family with sequence similarity 153 member B) #1, what was measured?
G2 robust z-score: -0.0239; G2 cells, % of GMNN control: 2.8; Call: inactive

What is on record for FAM153B (family with sequence similarity 153 member B) #2?
G2 robust z-score: 0.757; G2 cells, % of GMNN control: 8.29; Call: inactive

For FAM153B (family with sequence similarity 153 member B) #3, how do the results read?
G2 robust z-score: 0.68; G2 cells, % of GMNN control: 7.75; Call: inactive

A portion of the results above:
KIF23 (kinesin family member 23) #3 — G2 robust z-score = 3.98; G2 cells, % of GMNN control = 31; Call = inactive
TTF1 (transcription termination factor 1) #1 — G2 robust z-score = -1.23; G2 cells, % of GMNN control = -5.72; Call = inactive
TTF1 (transcription termination factor 1) #2 — G2 robust z-score = -0.609; G2 cells, % of GMNN control = -1.32; Call = inactive
